Binding data for 1 substance are collected here from paper PMC11996917, “An inherited predisposition allele promotes gastric cancer via enhancing deubiquitination-mediated activation of epithelial-to-mesenchymal transition signaling”.

Chains of the proteins cited; added tags and fusions are not shown.
UniProt O95863: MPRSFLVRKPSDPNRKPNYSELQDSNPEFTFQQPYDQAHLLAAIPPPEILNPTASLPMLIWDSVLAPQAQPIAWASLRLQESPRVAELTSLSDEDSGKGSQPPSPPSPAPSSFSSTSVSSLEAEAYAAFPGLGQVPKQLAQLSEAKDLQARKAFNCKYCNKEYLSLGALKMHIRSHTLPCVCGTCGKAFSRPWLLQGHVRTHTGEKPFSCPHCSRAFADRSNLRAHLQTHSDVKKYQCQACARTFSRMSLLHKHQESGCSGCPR

For the test, the target named is T1, USP47 (human (endogenous in HGC-27)) (UniProt Q96K76).
T1 sequence: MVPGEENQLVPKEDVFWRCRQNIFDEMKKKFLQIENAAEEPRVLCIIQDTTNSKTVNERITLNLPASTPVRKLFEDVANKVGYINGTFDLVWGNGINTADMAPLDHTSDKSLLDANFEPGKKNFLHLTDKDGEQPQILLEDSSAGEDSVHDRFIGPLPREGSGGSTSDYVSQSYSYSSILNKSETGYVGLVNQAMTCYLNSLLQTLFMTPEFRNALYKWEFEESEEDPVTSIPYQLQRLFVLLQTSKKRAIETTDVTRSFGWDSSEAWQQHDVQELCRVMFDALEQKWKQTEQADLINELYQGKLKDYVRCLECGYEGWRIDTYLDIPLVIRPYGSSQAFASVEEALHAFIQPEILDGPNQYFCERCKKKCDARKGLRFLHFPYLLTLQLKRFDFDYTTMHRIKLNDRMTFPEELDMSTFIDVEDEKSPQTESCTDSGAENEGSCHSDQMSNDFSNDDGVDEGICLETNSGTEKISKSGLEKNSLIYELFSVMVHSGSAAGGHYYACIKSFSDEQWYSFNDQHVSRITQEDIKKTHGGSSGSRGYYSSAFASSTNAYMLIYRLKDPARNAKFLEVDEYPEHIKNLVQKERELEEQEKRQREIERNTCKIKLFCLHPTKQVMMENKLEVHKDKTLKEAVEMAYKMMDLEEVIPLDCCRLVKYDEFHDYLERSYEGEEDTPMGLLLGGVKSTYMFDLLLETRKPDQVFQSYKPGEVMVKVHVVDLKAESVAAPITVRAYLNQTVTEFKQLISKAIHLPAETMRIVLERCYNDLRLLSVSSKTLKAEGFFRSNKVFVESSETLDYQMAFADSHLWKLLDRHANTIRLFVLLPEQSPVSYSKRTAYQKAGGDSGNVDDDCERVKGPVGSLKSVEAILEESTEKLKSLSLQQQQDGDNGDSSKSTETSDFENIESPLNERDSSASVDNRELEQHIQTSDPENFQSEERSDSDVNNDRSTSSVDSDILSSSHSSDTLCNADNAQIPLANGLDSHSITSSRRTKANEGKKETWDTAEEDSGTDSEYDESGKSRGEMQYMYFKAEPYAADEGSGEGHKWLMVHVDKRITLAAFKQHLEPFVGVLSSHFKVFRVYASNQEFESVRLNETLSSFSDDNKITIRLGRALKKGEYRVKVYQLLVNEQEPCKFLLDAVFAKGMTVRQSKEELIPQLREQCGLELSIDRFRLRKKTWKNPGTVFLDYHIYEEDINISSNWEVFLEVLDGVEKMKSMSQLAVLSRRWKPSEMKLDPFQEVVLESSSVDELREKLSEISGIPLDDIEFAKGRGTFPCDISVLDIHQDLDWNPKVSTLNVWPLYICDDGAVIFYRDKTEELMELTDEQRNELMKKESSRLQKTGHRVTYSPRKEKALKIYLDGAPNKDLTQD
Kind of test: co-IP; whole-cell lysates of HGC-27 cells (20 mM Tris-HCl pH 8.0, 150 mM NaCl, 1 mM EDTA, 0.5% NP40, 10% glycerol); IP with anti-USP47 antibody (IgG as control), protein A/G magnetic beads, 4°C; immunoblot with anti-USP47 or anti-Snai1. (Immunoblotting shows a protein as a band on a membrane.)

These are yes or no findings as the source states them, for the method shown. Binding seen in cells or lysates may run through a third protein. Some results given as binding are weak or reduced against the parent protein; the word gives no strength.

For Snai1 (from UniProt O95863 1-264), the binding entry is listed as “binds”.
